Results are given in words; binding and its absence hold for the method and conditions named. Binding seen in cells or lysates may run through a third protein. Some binding calls cover weakened binding; strength is not graded here.
Target: MYC (human (endogenous in MDA-MB-231)) (UniProt P01106)
Experiment: co-IP; MDA-MB-231 lysate (IP lysis buffer, Pierce Classic Magnetic IP/Co-IP Kit) mixed at 4°C overnight with magnetic beads carrying anti-MYC, anti-TIP60 or IgG; eluate analysed by western blotting

Protein sequences, listed by entry. Tags and fused reporters are not part of them.
UniProt P01106: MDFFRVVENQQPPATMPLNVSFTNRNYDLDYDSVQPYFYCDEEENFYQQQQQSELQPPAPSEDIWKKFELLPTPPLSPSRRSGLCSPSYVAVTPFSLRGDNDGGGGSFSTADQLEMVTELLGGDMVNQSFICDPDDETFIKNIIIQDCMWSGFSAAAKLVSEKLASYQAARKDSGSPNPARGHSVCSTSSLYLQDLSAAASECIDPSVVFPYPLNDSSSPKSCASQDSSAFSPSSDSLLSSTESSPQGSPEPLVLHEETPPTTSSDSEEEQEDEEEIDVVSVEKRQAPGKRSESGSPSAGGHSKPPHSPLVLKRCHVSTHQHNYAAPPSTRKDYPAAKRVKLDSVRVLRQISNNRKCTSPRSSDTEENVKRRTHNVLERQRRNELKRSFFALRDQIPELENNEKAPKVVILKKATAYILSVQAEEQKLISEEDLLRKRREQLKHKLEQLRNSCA
UniProt Q92993: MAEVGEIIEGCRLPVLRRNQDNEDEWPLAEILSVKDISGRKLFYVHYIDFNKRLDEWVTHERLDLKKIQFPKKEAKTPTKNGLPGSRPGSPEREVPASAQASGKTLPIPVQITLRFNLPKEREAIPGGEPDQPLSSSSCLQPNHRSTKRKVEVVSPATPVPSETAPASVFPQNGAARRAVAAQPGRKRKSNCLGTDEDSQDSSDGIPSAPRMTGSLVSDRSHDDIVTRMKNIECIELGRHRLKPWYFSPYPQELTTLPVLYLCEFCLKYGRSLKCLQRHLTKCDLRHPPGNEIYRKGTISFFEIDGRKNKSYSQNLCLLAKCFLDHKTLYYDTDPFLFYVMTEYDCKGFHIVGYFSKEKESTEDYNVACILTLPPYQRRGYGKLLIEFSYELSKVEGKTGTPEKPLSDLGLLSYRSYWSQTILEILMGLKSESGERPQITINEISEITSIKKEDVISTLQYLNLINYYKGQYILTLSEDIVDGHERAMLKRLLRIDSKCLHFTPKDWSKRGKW

binding: binds
Substance: TIP60 histone acetyltransferase (from UniProt Q92993 1-513) (enzyme)

Reference: article PMC12215574
